The structures given here were assigned with low confidence; some may be wrong.
Target: immobilized recombinant CD8 protein (Homo sapiens, UniProt P01732)
Experiment: Solid-phase ELISA on immobilized recombinant CD8 protein
Method: Eight hits were left after this screening (Table 8) (from top to bottom: SEQ ID NOs:31, 32, 33, 34, 30, 35, 36, 37). These hits were assessed in solid phase ELISA and in flow cytometry experiments (Table 9).
Of the 8 hits obtained from the CD8α/β screen, nfyrr (SEQ ID NO:32) and vlyrr (SEQ ID NO:30) show binding to immobilized recombinant CD8 protein. The EC50 of vlyrr (SEQ ID NO:30) is 77±19 nM. The EC50 of nfyrr (SEQ ID NO:32) is 47±8 nM. The data agree between the solid-phase ELISA and flow experiments.

Chains of the proteins cited; added tags and fusions are not shown. Residues count along the entry.
UniProt P01732, 22-235 limits assumed: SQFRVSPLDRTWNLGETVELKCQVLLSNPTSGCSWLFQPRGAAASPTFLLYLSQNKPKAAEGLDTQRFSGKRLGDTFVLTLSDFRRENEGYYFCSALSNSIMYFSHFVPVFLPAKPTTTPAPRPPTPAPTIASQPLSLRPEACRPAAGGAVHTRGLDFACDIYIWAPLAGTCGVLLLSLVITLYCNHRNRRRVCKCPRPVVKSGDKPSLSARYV

EC50 [nM] | SMILES
77 | CC(C)C[C@@H](NC(=O)[C@H](N)C(C)C)C(=O)N[C@H](Cc1ccc(O)cc1)C(=O)N[C@H](CCCNC(=N)N)C(=O)N[C@H](CCCNC(=N)N)C(=O)O
47 | N=C(N)NCCC[C@@H](NC(=O)[C@@H](CCCNC(=N)N)NC(=O)[C@@H](Cc1ccc(O)cc1)NC(=O)[C@@H](Cc1ccccc1)NC(=O)[C@H](N)CC(N)=O)C(=O)O
